Measurements taken from PubChem BioAssay AID463183 (Sanford-Burnham Center for Chemical Genomics, 2010).
The list shows a part of the results. The main result of the screen is listed elsewhere. These columns were measured beside it and carry no call. Compounds called inactive in the main read-out are mostly missing here.

Assay: hepatocyte lipid droplet accumulation inhibitors, confirmation, imaging, AML12 mouse hepatocytes, single concentration, high-content (AID 463183);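 also: cells counted after overnight compound exposure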
Conditions: BODIPY lipid droplet imaging, measured here: cell count, cytotoxicity, at 5.2 µM, droplets induced with 100 µM oleic acid

SMILES | cell count
O=C(NCCc1ccccc1)c1oc2ccccc2c1COc1ccccc1 | 1530 cells
CCOC(=O)c1ccc(S(=O)(=O)NCC(c2ccc(N(C)C)cc2)c2c[nH]c3ccccc23)cc1 (centres undefined) | 1630 cells
O=C(NCCO)c1cc2ccccc2cc1O | 1590 cells
COc1ccc(OC)c(/C=C/C(=O)N(C)CC(=O)Nc2ccc(C)cc2)c1 | 1580 cells
CCCCCc1cc(=O)oc2c(C(CCN3CCCC(C)C3)c3ccc(N(C)C)cc3)c(OC)cc(OC)c12 (centres undefined) | 1340 cells
COc1cc(NC(=O)c2ccco2)c(OC)cc1NC(=O)Nc1ccccc1Cl | 1610 cells
CCOc1cc([C@@H]2C[C@H]3CN(c4ccccc4)C(=O)[C@]34CCCN24)ccc1OC | 1590 cells
CCC(C(=O)NCc1cccc(C)c1)n1nc(C)c2c(C)n(-c3ccccc3)nc2c1=O (centres undefined) | 1570 cells
CCOc1ccccc1NC(=O)CCCNC(=O)Cn1cnc2sc(C)c(C)c2c1=O | 1610 cells
O=[N+]([O-])c1cc(Cl)ccc1N1CCN(c2cccc(C(F)(F)F)c2)CC1 | 1650 cells
O=C(/C=C/c1ccc(Cl)cc1)NC(=S)Nc1ccc(NC(=O)c2ccco2)cc1 | 1420 cells
Cc1ccccc1OCC(=O)NCCCNC(=O)c1ccccn1 | 1620 cells
COCc1ccc(C(=O)NC2CCCc3c2cnn3-c2ccc(C)c(C)c2)o1 (centres undefined) | 1510 cells
CCOC(=O)n1cc(-c2cnc(CNC(=O)C(C)(c3ccccc3)c3ccccc3)o2)c2ccccc21 | 1570 cells
COc1ccc(N=Nc2nc(-c3ccccc3)c(-c3ccccc3)[nH]2)cc1 | 1730 cells
Cc1ccc2nc(Nc3ccc(F)cc3)c3nncn3c2c1 | 1590 cells
O=C(CN1C(=O)NC2(CCOc3ccccc32)C1=O)c1ccc(Br)cc1 (centres undefined) | 1600 cells
Cc1ccc([N+](=O)[O-])cc1NC(=O)C(C)Sc1nnc(C)n1CC1CCCO1 (centres undefined) | 1610 cells
Cc1ccc(NC(=O)C2CCCN(S(=O)(=O)c3c(C)noc3/C=C/N(C)C)C2)cc1F (centres undefined) | 1550 cells
COC(=O)c1cc(-c2ccc(OC)cc2)nc2nc(SC)[nH]c(=O)c12 | 1630 cells

SMILES | cell count
Cc1ccc(C(=O)CC2(O)C(=O)N(CCc3ccccc3)c3ccc(Br)cc32)o1 (centres undefined) | 1670 cells
CC1CCCN(C2=C(NS(=O)(=O)c3ccc(Br)cc3)C(=O)c3ccccc3C2=O)C1 (centres undefined) | 1620 cells
Cc1ccc(-c2[nH]c3ccccc3c2SCCNC(=O)c2ccc(S(=O)(=O)N3CCOCC3)cc2)cc1 | 1620 cells
O=[N+]([O-])c1cc(Cl)ccc1NCCNc1ncc(C(F)(F)F)cc1Cl | 1510 cells
CCCOc1cccc(C(=O)NCCNC(=O)c2ccc(C)nc2)c1 | 1590 cells
CC(C)(C)C(=O)Nc1nc2c(s1)COc1ccccc1-2 | 1620 cells
CC(C)(C)c1ccc(-c2csc(NNC3=NCCCCC3)n2)cc1 | 1630 cells
CCOc1ccc(C(=O)OCC(=O)Nc2ccc(SC(F)F)cc2)cc1OCC | 1630 cells
CCOc1ccc(C(=O)OCC(=O)Nc2cc(C)on2)cc1OCC | 1640 cells
CCCNC1=CC(=O)CC(C)(C)C1 | 1620 cells
O=[N+]([O-])c1ccccc1/C=C/C=N/Nc1ccc(S(=O)(=O)Nc2ccc(Cl)cc2)cc1[N+](=O)[O-] | 1540 cells
CS(=O)(=O)N(CC(=O)Nc1ccccc1Br)Cc1ccccc1 | 1670 cells
CN(C)c1ccc(N=Nc2ccccc2Br)cc1 | 1670 cells
CCOc1ccc(CCNC(=O)COC(=O)c2c(C)nn(-c3ccccc3)c2C)cc1OCC | 1630 cells
COc1ccc(/C=N/N=C2\SCC(=O)N2c2c(C)n(C)n(-c3ccccc3)c2=O)cc1OC | 1530 cells
N=c1scc(-c2ccccc2)n1/N=C/c1ccco1 | 1600 cells
Cc1sc(NC(=O)Cc2ccc3c(c2)OCO3)nc1-c1ccc2c(c1)CCN2C(=O)c1ccccc1F | 1470 cells
COc1ccc(N2CCN(C(=O)c3cc(C)on3)CC2)cc1 | 1600 cells
COc1ccc(C2(c3ccc(OC)cc3)NC(=O)N(CC(=O)Nc3cc(C)ccc3OC)C2=O)cc1 | 1670 cells

Ordered by count of non-hydrogen atoms (high to low): part of the list above
SMILES | cell count
CC1CCCN(C2=C(NS(=O)(=O)c3ccc(Br)cc3)C(=O)c3ccccc3C2=O)C1 (centres undefined) | 1620 cells
CCOc1ccc(C(=O)OCC(=O)Nc2cc(C)on2)cc1OCC | 1640 cells
CC(C)(C)c1ccc(-c2csc(NNC3=NCCCCC3)n2)cc1 | 1630 cells
